# According to PubChem BioAssay AID2685 (National Center for Advancing Translational Sciences (NCATS), 2010):
# Some of the results follow. Shown are side measurements of this screen, not its main read-out; they come without a call. The list favours compounds with an active or inconclusive main result. The note in brackets gives the kind of curve behind each potency; many fits are weak.
# Experiment: qHTS Assay for Lipid Storage Modulators in Drosophila S3 Cells;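 as to cell number change: cells counted by Cell Tracker Red CMTPX staining in the red channel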
# Settings: BODIPY lipid droplet fluorescence, 18-24 h; for cell number change: measured here: cell count max response, cells fed with added oleic acid
# Method in brief: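 Laser-scanning cytometry quantifies lipid droplet accumulation (500–530 nm total intensity; droplet/cell object ratio) in oleic acid-fed (400 uM added) Drosophila S3 cells treated with a concentration series. 20 uM Triacsin C defined 100% inhibition.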
# [1] = measured here: cell number channel AC50, cells fed with added oleic acid
# [2] = measured here: lipid fluorescence (Fed channel) AC50, cells fed with added oleic acid
SMILES,cell number change [%],AC50 [1],AC50 [2]
CCOC(=O)N1CCC(N2C(=O)c3ccc(C(=O)O)cc3C2=O)CC1,-98.9,"29.1 µM [falling, partial curve]","23.1 µM [falling, partial curve]"
COCCn1c(SCc2ccccc2F)nc2ccccc2c1=O,58.8,"20.6 µM [rising, single point]","23.1 µM [rising, single point]"
CCCCCC(=O)Nc1nc(C)c(-c2csc(Nc3ccccc3OC)n2)s1,-30.6,"7.31 µM [falling, partial curve]",
CCCn1c(SCC(=O)c2ccc3c(c2)NC(=O)CO3)nc2ccccc21,-18.5,,"14.6 µM [falling, partial curve, poor fit]"
CN(Cc1nc(-c2cccnc2)no1)S(=O)(=O)c1ccc2ccccc2c1,-2.39,,"0.651 µM [rising, full curve]"
COc1cc(OC)cc(-c2c(-c3cccs3)c3cc(-c4ccn[nH]4)ccc3n2C)c1,-7.83,,"0.291 µM [rising, partial curve]"
COc1cc(/C=N\NC(=O)c2ccc(-c3ccccc3)cc2)cc(OC)c1OC(C)=O,-21.7,,
CC1(C)CC(=O)C2=C(C1)Nc1ccccc1NC2c1cc(Cl)ccc1O (stereo not given),-31.5,"9.2 µM [falling, single point]",
CCn1c(O)c(/C=N/N=C/c2ccccc2)c2ccc(C3=NNC(=O)CC3)cc21,,"1.3 µM [rising, partial curve]","0.517 µM [rising, full curve, poor fit]"
CC(/C=N/Nc1nc(C)cc(C)n1)=C\c1ccc(C(C)C)cc1,38.3,"6.51 µM [rising, partial curve]","2.31 µM [rising, full curve]"
COC(=O)c1ccc(NC(=O)CSc2ccc(-c3ccccn3)nn2)cc1,-5.65,,"20.6 µM [rising, single point]"
Cc1nn(C)c(C)c1/C=N/O,-2.12,,
Cc1ccccc1Nc1nc(N)nc(COC(=O)CCS(=O)(=O)c2ccccc2)n1,,,"2.06 µM [rising, full curve, poor fit]"
CCn1c(CNC(=O)c2ccc(Cl)cc2)nnc1SCC(=O)NC1=NCCS1,17.9,,
COc1ccc(NC2CC(=O)N(c3ccc(C(=O)O)cc3)C2=O)cc1 (stereo not given),0.601,,
CCOC(=O)C1CCN(C(=O)c2cccc(S(=O)(=O)N(C)C3CCCCC3)c2)CC1,,,"0.092 µM [falling, full curve, poor fit]"
O=C(Nc1ccccc1F)c1ccc2c(c1)CCN2S(=O)(=O)c1ccccc1,7.03,,"6.51 µM [falling, single point]"
CCSc1nccc(-c2nn(-c3ccc(C)cc3)ccc2=O)n1,30.2,"0.651 µM [rising, full curve]","4.11 µM [rising, full curve]"
N#C/C(=C(/O)c1ccc([N+](=O)[O-])cc1)c1nc2ccccc2[nH]1,46.9,"16.4 µM [rising, partial curve]","29.1 µM [rising, single point]"
Cc1ccc(Cl)cc1N1CCN(C2CCCCC2NS(=O)(=O)c2ccccc2)CC1 (stereo not given),7.34,"4.11 µM [rising, single point]",

# Another view of part of the listing above.
SMILES | cell number change [%] | AC50 [1] | AC50 [2]
CCn1c(O)c(/C=N/N=C/c2ccccc2)c2ccc(C3=NNC(=O)CC3)cc21 |  | 1.3 µM [rising, partial curve] | 0.517 µM [rising, full curve, poor fit]
CC(/C=N/Nc1nc(C)cc(C)n1)=C\c1ccc(C(C)C)cc1 | 38.3 | 6.51 µM [rising, partial curve] | 2.31 µM [rising, full curve]
COC(=O)c1ccc(NC(=O)CSc2ccc(-c3ccccn3)nn2)cc1 | -5.65 |  | 20.6 µM [rising, single point]
Cc1nn(C)c(C)c1/C=N/O | -2.12 |  | 
Cc1ccccc1Nc1nc(N)nc(COC(=O)CCS(=O)(=O)c2ccccc2)n1 |  |  | 2.06 µM [rising, full curve, poor fit]

# Later entries.

SMILES,cell number change [%],AC50 [1],AC50 [2]
Cc1cccc(OCC(=O)N(Cc2ccc(F)cc2)C2CCS(=O)(=O)C2)c1C (stereo not given),5.37,,"0.731 µM [rising, single point]"
Nc1nc(Nc2cccc(C(F)(F)F)c2)nc(C(F)(F)F)n1,-45,"13 µM [falling, partial curve]","13 µM [falling, partial curve]"
Cc1cc(=O)oc2cc(OCC(=O)N3CCN(c4ccccc4)CC3)ccc12,0.622,,
CCOc1ccc(CCNC(=O)COC(=O)Cn2cnc3ccccc3c2=O)cc1OCC,17.1,,"0.0731 µM [rising, full curve, poor fit]"
O=S(=O)(O)c1nc2ccccc2n1Cc1cccc2ccccc12,28.4,,"29.1 µM [rising, single point]"
CCOc1ccc(CN(Cc2ccco2)S(=O)(=O)c2ccc(-n3cnnn3)c(OC)c2)cc1,25.8,"2.31 µM [rising, full curve, poor fit]",
Cc1ccc(C(=O)NC(=S)N2CCN(C)CC2)cc1Br,-0.829,,"11.6 µM [rising, partial curve]"
COc1ccc(-c2cc(C)no2)cc1S(=O)(=O)N1CCN(C(=O)c2ccco2)CC1,,,"14.6 µM [rising, partial curve]"
COc1ccc(NC(=O)CN(c2ccccc2)S(=O)(=O)c2ccccc2)c(OC)c1,-20,,
S=C(NCc1ccccc1)N1CCN(C2CCCCC2)CC1,13.6,,
Cc1cccc(N2CN(Cc3cccnc3)CNC2=S)c1C,10.3,,"0.82 µM [rising, full curve, poor fit]"
O=C(N1CCOCC1)N1CCN(Cc2ccccc2)CC1,-8,,"32.6 µM [falling, single point]"
CN(Cc1ccccc1)S(=O)(=O)c1nnc(NC(=O)c2ccccc2F)s1,-37.6,"29.1 µM [falling, single point]",
COc1ccc(CNC(=O)C2CCCN(S(=O)(=O)N3CC(C)CC(C)C3)C2)c(OC)c1 (stereo not given),,"6.51 µM [rising, single point]","29.1 µM [falling, single point]"
Cc1ccc(C(CNC(=O)Nc2ccc(Cl)cc2)N2CCN(C)CC2)cc1 (stereo not given),,,"0.58 µM [rising, single point]"
Cc1oc(-c2ccccc2Cl)nc1CS(=O)(=O)CC(=O)NC(C)c1ccccc1 (stereo not given),3.75,,
Cc1ccccc1Cn1c2ccccc2c2cnn(CC(=O)N3CCN(c4ccccc4)CC3)c(=O)c21,,,"0.58 µM [falling, single point]"
CS(=O)(=O)N1CCN(C(=O)c2ccc3c(c2)OCCO3)CC1,-2.64,,"29.1 µM [rising, single point]"
Cc1ccc(-c2csc3ncnc(Nc4ccc(N5CCOCC5)cc4)c23)cc1,-7.28,"0.103 µM [falling, full curve, poor fit]","0.116 µM [falling, full curve, poor fit]"
COc1cccc(S(=O)(=O)NCc2ccc(C(=O)N3CCN(Cc4ccccc4)CC3)cc2)c1,-16.7,,

SMILES,cell number change [%],AC50 [1],AC50 [2]
CC(OC(=O)c1ccccc1C(=O)N(C)c1ccccc1)C(=O)Nc1ccc(C(N)=O)cc1 (stereo not given),2.72,,"7.31 µM [falling, single point]"
CCOc1ccccc1/C=C/C(=O)NCC(=O)N1CCC(N(C)C2CCCCC2C)CC1 (stereo not given),31.7,"8.2 µM [rising, partial curve, poor fit]","0.103 µM [falling, single point]"
COc1ccc(N2C(=O)CSC23C(=O)N(CC(=O)NC2CCCC2)c2ccccc23)cc1 (stereo not given),0.382,,"6.51 µM [rising, single point]"
COC(=O)c1sc(S(=O)(=O)Nc2ccc(C)c(C)c2)c(C(=O)OC)c1C,10.4,,"5.8 µM [falling, single point]"
CCOC(=O)C1=C(C)N(C)C(C)=C(C(=O)OCC)C1c1ccc(Cl)cc1,4.44,"3.26 µM [falling, partial curve]",
Cc1ccc(/C=N/n2c(-c3cccnc3)n[nH]c2=S)s1,15.4,"3.26 µM [rising, single point]",
Cc1ccc(C)c(N2C(=O)c3ccc(C(=O)OCC(=O)c4c(N)n(C)c(=O)n(C)c4=O)cc3C2=O)c1,16.3,"6.51 µM [rising, single point]",
O=C(CCCNC(=O)/C(=C/c1ccccc1F)NC(=O)c1ccccc1)OCc1ccccc1,-14.4,,"29.1 µM [falling, single point]"
CCOC(=O)c1c(C)[nH]c(C)c1C(=O)CSc1nnc(-c2ccco2)n1Cc1ccccc1,-27.4,,
CCc1nc(SCC(=O)Nc2cc(C)ccc2OC)c2c(C)c(C)sc2n1,-17.9,,
CCc1ccc(Nc2n[n+](-c3ccccc3)c(-c3ccc(OC)c(Br)c3)s2)cc1,3.89,,"6.51 µM [rising, single point]"
COc1ccc([C@H]2CC(=O)C=C(c3ccc(OC)cc3OC)C2)cc1,-35.9,"23.1 µM [falling, single point]","0.00461 µM [falling, full curve, poor fit]"
CCC(C(=O)OCC(=O)Nc1c(Cl)cccc1Cl)c1ccccc1 (stereo not given),,,"29.1 µM [rising, single point]"
O=C(O)C1C(c2ccccc2)C(C(=O)Oc2ccc(O)cc2)C1c1ccccc1 (stereo not given),13.9,,
COc1ccc(CNCCC(c2ccc(OC(C)C)cc2)C(C)C)cc1OC (stereo not given),-48.1,"20.6 µM [falling, partial curve, poor fit]","16.4 µM [falling, partial curve]"
Cc1ccc(-n2nc(C)c3c(-c4cccs4)c(C#N)c(N)nc32)cc1,-31.2,"6.51 µM [falling, partial curve]","13 µM [falling, single point]"
CC1CN(c2oc(-c3ccco3)nc2S(=O)(=O)c2ccccc2)CC(C)O1 (stereo not given),12.4,,
COc1ccc(NC(=O)CN(C)S(=O)(=O)c2ccccc2)cc1OC,-1.52,"6.51 µM [falling, single point]",
CN(CCCNC(=O)CCc1cn(C)c2ccccc12)C1CCCCC1,-14.8,,"29.1 µM [rising, single point]"
